Here are results for one molecule from EP4076430B1, “A METHOD OF TREATING NONALCOHOLIC STEATOHEPATITIS” (Vector Vitale IP LLC, priority 2019, dated 2021).

A short description of this series: Levels of divalent metal ions in muscles, kidneys and liver, obesity model. The class given is in vivo, rats. To be noted: DIO+zinc: high-fat diet, intragastrically every third day.

On to `N[C@@H](CC(=O)[O-])C(=O)[O-].[Zn+2]` [^64Zne, zinc aspartate], for which the Copper level by setting is: (Kidneys) 4.94±0.82 µg/g tissue; (Liver) 3.93±0.09 µg/g tissue; (Muscles) 0.72±0.15 µg/g tissue. In addition, the Manganese level is, setting by setting: (Kidneys) 0.64±0.03 µg/g tissue; (Liver) 1.94±0.12 µg/g tissue.
